From PubChem BioAssay AID2685 (National Center for Advancing Translational Sciences (NCATS), 2010)
This is one part of the list. Further columns of the screen follow, without active or inactive calls. Compounds called inactive in the main read-out are mostly missing here. Potencies come from curve fits of mixed quality, noted in brackets.

Test: qHTS Assay for Lipid Storage Modulators in Drosophila S3 Cells;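 on cell number change: cells counted by Cell Tracker Red CMTPX staining in the red channel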
Conditions: BODIPY lipid droplet fluorescence, 18-24 h; for cell number change: measured here: cell count max response, cells fed with added oleic acid; for AC50: measured here: lipid fluorescence (Fed channel) AC50, cells fed with added oleic acid
How it was run: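 Drosophila S3 cells got compounds at several concentrations plus oleic acid (400 uM solution). Laser-scanning cytometry with 488 nm excitation read lipid droplets at 500-530 nm and cells at 575-640 nm. Percent activity was relative to 20 uM Triacsin C.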

Row | Compound | cell number change [%] | AC50
1 | CCc1nnc(NS(=O)(=O)c2ccc(N/C=C(\C=O)c3nc4cc(Cl)ccc4o3)cc2)s1 | -5.96 | 29.1 µM [rising, single point]
2 | O=C(O)c1cc(NC(=O)c2ccc(Br)cc2)cc(NC(=O)c2ccc(Br)cc2)c1 | -1.59 | 6.51 µM [rising, single point]
